Test results: PubChem BioAssay (NCATS)
Inconclusive means that the source gave no clear call. Such entries were picked first, then a sample of the others. A potency beside an inconclusive call is a rough fit, not a confirmed value. The source made the active and inactive calls. The call rests on the fitted dose curve; in most records, active means well fitted cell-killing curve with a large enough effect; inconclusive means small, poorly fitted or top-dose-only effect, or effect the other way; inactive means no such curve, though single readings can be large or run the other way.

Assays:
[1] = Quantitative High-Throughput drug screen in 47 multiple myeloma cell lines against the NCATS MIPE library collection: FR4_PLB cell viability assay (AID 1918924; further: nearly all actives have a fitted effect of over 35% in size)
How it was run: (§1)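 Viability readout: CellTiter-Glo luminescence following 5 min room-temperature incubation with reagent. Prior exposure: 48 h, 37C, humidified 5% CO2, 500 cells per well.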

[2] = Quantitative High-Throughput drug screen in 47 multiple myeloma cell lines against the NCATS MIPE library collection: EJM_DSMZ cell viability assay (AID 1918926; further: nearly all actives have a fitted effect of over 30% in size)
How it was run: (§2)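 Relative luminescence from CellTiter-Glo served as the viability signal, referenced to DMSO-treated (100%) and cell-free medium (0%) controls. Treatment lasted 48 hours at 37C with 500 cells per well.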

[3] = Quantitative High-Throughput drug screen in 47 multiple myeloma cell lines against the NCATS MIPE library collection: AMO1_DSMZ cell viability assay (AID 1918927; further: nearly all actives have a fitted effect of over 30% in size;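 on viability, % of DMSO: 100% = DMSO only wells and 0% = cell-free media only wells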); conditions: AMO1 myeloma cells viability, CellTiter-Glo ATP luminescence, 48 h; viability, % of DMSO: at 45.8 µM (top of the series)
How it was run: as §2

[4] = Quantitative High-Throughput drug screen in 47 multiple myeloma cell lines against the NCATS MIPE library collection: ARD_JJKsccE7 cell viability assay (AID 1918929;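 on viability: 100% = DMSO-only wells and 0% = media-only wells without cells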); conditions: ARD myeloma cell line viability, CellTiter-Glo, 48 h; viability: at 45.8 µM (top of the series)
How it was run: as §2

[5] = Quantitative High-Throughput drug screen in 47 multiple myeloma cell lines against the NCATS MIPE library collection: Karpas620_DSMZ cell viability assay (AID 1918959); further: nearly all actives have a fitted effect of over 30% in size;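 on viability (% of DMSO): 100% = DMSO-only wells and 0% = cell-free media-only wells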
How it was run: as §1

[6] = Quantitative High-Throughput drug screen in 47 multiple myeloma cell lines against the NCATS MIPE library collection: KMM1_JCRB cell viability assay (AID 1918960); conditions: KMM1 myeloma viability, CellTiter-Glo ATP luminescence, 48 h; viability (% of DMSO): at 45.8 µM (top of the series); further: nearly all actives have a fitted effect of over 30% in size
How it was run: (§3)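 Myeloma cells, 500 per well, were exposed to MIPE 4.0 drugs by pin transfer for 48 h at 37 °C, 5% CO2. Viability was read as ATP luminescence with CellTiter-Glo, normalised to DMSO-only (100%) and medium-only (0%) wells.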

[7] = Quantitative High-Throughput drug screen in 47 multiple myeloma cell lines against the NCATS MIPE library collection: ARP1_JJKsccF8 cell viability assay (AID 1918928; further: nearly all actives have a fitted effect of over 40% in size); conditions: ARP1 myeloma cells viability, CellTiter-Glo ATP, 48 h; viability: at 45.8 µM (top of the series)
How it was run: as §3

[8] = Quantitative High-Throughput drug screen in 47 multiple myeloma cell lines against the NCATS MIPE library collection: Delta47_JCRB cell viability assay (AID 1918925; further: nearly all actives have a fitted effect of over 45% in size); conditions: Delta47 myeloma viability, CellTiter-Glo ATP, 48 h; viability (% of DMSO): at 45.8 µM (top of the series)
How it was run: as §2
Potency means the concentration at half of the fitted maximal effect.

## Fc1ccc(C(OCCN2CCN(CCCc3ccccc3)CC2)c2ccc(F)cc2)cc1
[1]
  Potency: active: 20.9 µM
[2]
  Potency: active: 13.2 µM
[3]
  Potency: inactive
[4]
  Potency: inconclusive: 16.6 µM [rising, partial curve, poor fit]
[5]
  Potency: inactive
[6]
  Potency: inactive

## C#CCN(C)[C@H](C)Cc1ccccc1
[1]
  Potency: inactive
[2]
  Potency: inconclusive: 0.001 µM [cytotoxic]
[3]
  Potency: inconclusive: 0.0166 µM [cytotoxic, full curve, poor fit]
[7]
  Potency: inactive
[4]
  Potency: inactive
[6]
  Potency: inconclusive: 0.235 µM [rising, full curve]

## O=C(Oc1ccc([N+](=O)[O-])cc1)N1CCN(Cc2cccc(Oc3ccccc3)c2)CC1
[1]
  Potency: inactive
[8]
  Potency: inconclusive: 29.6 µM [cytotoxic, single point]
[4]
  Potency: inconclusive: 14.8 µM [cytotoxic, partial curve, poor fit]
[5]
  Potency: inconclusive: 0.0019 µM [rising, full curve, poor fit]
[6]
  Potency: inconclusive: 20.9 µM [cytotoxic, single point]

## C=C[C@@H]1CN2CCC1C[C@@H]2[C@@H](O)c1ccnc2ccccc12 (stereo partly drawn)
[1]
  Potency: inconclusive: 20.9 µM [cytotoxic, partial curve, poor fit]
[3]
  Potency: active: 5.9 µM
[7]
  Potency: inconclusive: 26.4 µM [cytotoxic, single point]
[4]
  Potency: inconclusive: 10.5 µM [cytotoxic, partial curve, poor fit]
[6]
  Potency: inconclusive: 8.33 µM [cytotoxic, single point]

## CC1=C(O)C(=O)C=C2C1=CC=C1[C@@]2(C)CC[C@@]2(C)[C@@H]3C[C@](C)(C(=O)O)CC[C@]3(C)CC[C@]12C
[1]
  Potency: active: 0.743 µM
[2]
  Potency: active: 0.743 µM
[3]
  Potency: active: 0.526 µM
[4]
  Potency: active: 1.05 µM
[6]
  Potency: active: 0.833 µM

## O=C(NCC1CCOCC1)c1cnc(Nc2ccc(Cl)cc2Cl)nc1C(F)(F)F
[1]
  Potency: active: 14.8 µM
[3]
  Potency: active: 18.7 µM
[7]
  Potency: inconclusive: 37.2 µM [cytotoxic, single point]
[4]
  Potency: inconclusive: 6.62 µM [cytotoxic, full curve, poor fit]
[6]
  Potency: inactive

## CCCC[N+]1(C)[C@H]2CC(OC(=O)[C@H](CO)c3ccccc3)C[C@H]1[C@H]1O[C@H]12 (stereo partly drawn)
[1]
  Potency: inactive
[2]
  Potency: inconclusive: 0.001 µM
[3]
  Potency: inconclusive: 0.0372 µM [cytotoxic, full curve, poor fit]
[7]
  Potency: inconclusive: 5.9 µM [cytotoxic, partial curve, poor fit]

## CN1C(=O)COc2c(C(=O)NC3CN4CCC3CC4)cc(Cl)cc21 (stereo not drawn)
[1]
  Potency: inactive
[3]
  Potency: inconclusive: 0.0026 µM [cytotoxic, full curve, poor fit]
[7]
  Potency: inconclusive: 37.2 µM [cytotoxic, single point]
[4]
  Potency: inconclusive: 23.5 µM [cytotoxic, partial curve, poor fit]
[6]
  Potency: inactive

## CCC(=O)OC1CCC2C3CCC4=CC(=O)CC[C@@]4(C)C3CC[C@]12C (stereo partly drawn)
[1]
  Potency: inactive
[3]
  Potency: inactive
[7]
  Potency: inconclusive: 0.105 µM [rising, full curve, poor fit]
[4]
  Potency: inactive

## CC(C)[C@H]1C(=O)N[C@H](CO)Cc2c[nH]c3cccc(c23)N1C
[1]
  Potency: inconclusive: 0.372 µM [cytotoxic, full curve, poor fit]
[8]
  Potency: inactive
[7]
  Potency: inactive
[4]
  Potency: inconclusive: 0.0372 µM [rising, full curve, poor fit]

## O=S(=O)(F)Cc1ccccc1
[1]
  Potency: inactive
[3]
  Potency: inactive
[7]
  Potency: inactive
[5]
  Potency: inactive

## CCOC(=O)c1cncn1[C@H](C)c1ccccc1
[1]
  Potency: inactive
[2]
  Potency: inactive
[7]
  Potency: inconclusive: 5.26 µM [cytotoxic, full curve, poor fit]
[4]
  Potency: inconclusive: 0.0418 µM [cytotoxic, full curve, poor fit]
[5]
  Potency: inconclusive: 18.7 µM [cytotoxic, partial curve, poor fit]

## Cc1[nH]nc2ccc(-c3cncc(OC[C@@H](N)Cc4c[nH]c5ccccc45)c3)cc12
[1]
  Potency: active: 0.833 µM
[2]
  Potency: active: 0.935 µM

## CNC(=O)N1N=C(c2ccc(N)cc2)c2cc3c(cc2CC1C)OCO3 (stereo not drawn)
[1]
  Potency: inconclusive: 3.72 µM [cytotoxic, full curve]
[2]
  Potency: active: 11.8 µM
[7]
  Potency: inconclusive: 4.18 µM [cytotoxic, full curve]
[4]
  Potency: active: 2.35 µM
[5]
  Potency: inconclusive: 2.96 µM [cytotoxic, full curve]
[6]
  Potency: inconclusive: 1.87 µM [cytotoxic, full curve]

## COc1ccc(C(=O)c2c(C)n(CCN3CCOCC3)c3ccccc23)cc1
[1]
  Potency: inconclusive: 20.9 µM [cytotoxic, partial curve, poor fit]
[8]
  Potency: inactive
[3]
  Potency: inactive
[4]
  Potency: inactive
[5]
  Potency: inconclusive: 16.6 µM [cytotoxic, partial curve, poor fit]

## COc1ccc(C(=O)c2c(C)n(CCN3CCOCC3)c3cc(I)ccc23)cc1
[1]
  Potency: inconclusive: 4.69 µM [cytotoxic, full curve]
[2]
  Potency: inconclusive: 37.2 µM [cytotoxic, single point]

## COc1ccc(C(=O)N2CCCC2=O)cc1
[1]
  Potency: inactive
[8]
  Potency: inconclusive: 1.05 µM [cytotoxic, full curve, poor fit]
[7]
  Potency: inconclusive: 9.35 µM [cytotoxic, partial curve]
[4]
  Potency: inconclusive: 1.66 µM [cytotoxic, full curve, poor fit]

## COC(=O)C1=CCCN(C)C1
[1]
  Potency: inactive
[3]
  Potency: inconclusive: 0.0526 µM [cytotoxic, full curve, poor fit]
[7]
  Potency: inactive
[4]
  Potency: inconclusive: 0.0332 µM [cytotoxic, full curve, poor fit]
[6]
  Potency: inactive

## Cc1nc(-c2ccc(-c3ccc(C(=O)N4CCc5cc6c(cc54)C4(CCN(C)CC4)CO6)cc3)c(C)c2)no1
[1]
  Potency: inactive
[8]
  Potency: inconclusive: 0.059 µM [rising, full curve, poor fit]
[7]
  Potency: inactive
[4]
  Potency: inconclusive: 2.64 µM [cytotoxic, partial curve, poor fit]

## COc1ccc(C(CN(C)C)C2(O)CCCCC2)cc1 (stereo not drawn)
[1]
  Potency: inactive
[2]
  Potency: inconclusive: 37.2 µM [cytotoxic, single point]
[3]
  Potency: inconclusive: 0.0105 µM [cytotoxic, full curve, poor fit]
[6]
  Potency: inconclusive: 0.0235 µM [cytotoxic, full curve, poor fit]

## CCN(CC)C(=O)c1ccc(C2=CC3(CCNCC3)Oc3cccc(O)c32)cc1
[1]
  Potency: inconclusive: 8.33 µM [cytotoxic, partial curve, poor fit]
[8]
  Potency: inactive
[7]
  viability: inconclusive: 86.7% [cytotoxic]
[6]
  Potency: inconclusive: 37.2 µM [cytotoxic, single point]

## CCCCCC[C@H]1C(=O)O[C@H](C)[C@H](NC(=O)c2cccc(NC=O)c2O)C(=O)O[C@@H](C)[C@@H]1OC(=O)CC(C)C
[1]
  Potency: active: 0.0662 µM
[2]
  Potency: inconclusive: 10.5 µM [cytotoxic, partial curve, poor fit]
[7]
  Potency: active: 0.0418 µM
[5]
  Potency: active: 0.935 µM

## CCOC(=O)c1c(C(C#N)=CN)c2ccc(Cl)c(Cl)c2n1C
[1]
  Potency: inactive
[3]
  Potency: inactive
[7]
  Potency: inactive
[4]
  Potency: inconclusive: 37.2 µM [cytotoxic, single point]
[6]
  Potency: inconclusive: 29.6 µM [cytotoxic, single point]

## CN1[C@H]2CC(O)C[C@H]1[C@H]1O[C@H]12 (stereo partly drawn)
[1]
  Potency: active: 26.4 µM
[8]
  Potency: active: 9.35 µM
[7]
  Potency: active: 20.9 µM
[4]
  Potency: inactive

## O=C(O)CCCc1ccc(N(CCCl)CCCl)cc1
[1]
  Potency: inconclusive: 4.18 µM [rising, partial curve, poor fit]
[8]
  Potency: inconclusive: 37.2 µM [cytotoxic, single point]
[7]
  Potency: inconclusive: 0.0015 µM [cytotoxic, full curve, poor fit]

## CC(C)(C)[C@]1(O)C[C@@H]2OC(=O)C[C@@]23C(=O)O[C@@H]2OC(=O)[C@H](O)C213 (stereo partly drawn)
[1]
  Potency: inactive
[8]
  Potency: inconclusive: 1.66 µM [cytotoxic, partial curve, poor fit]
[3]
  Potency: inactive
[4]
  Potency: inconclusive: 0.132 µM [cytotoxic, full curve, poor fit]
[6]
  Potency: inactive

## CC(C)(O)C=CC(=O)[C@](C)(O)[C@H]1[C@H](O)C[C@]2(C)[C@@H]3CC=C4[C@@H](C=C(O)C(=O)C4(C)C)[C@]3(C)C(=O)C[C@@]12C
[1]
  Potency: active: 0.0469 µM
[2]
  Potency: active: 0.0083 µM
[3]
  Potency: active: 0.0418 µM

## Oc1ccc2c3c1O[C@H]1c4[nH]c5c(c4C[C@@]4(O)[C@@H](C2)N(CC2CC2)CC[C@]314)C[C@@]1(O)[C@H]2Cc3ccc(O)c4c3[C@@]1(CCN2CC1CC1)[C@H]5O4
[8]
  Potency: inactive
[3]
  Potency: inactive
[6]
  Potency: inconclusive: 0.0037 µM [rising, full curve]

## CC(N[C@H]1C[C@H]1c1ccccc1)c1ccc2c(c1)OCCO2 (stereo partly drawn)
[8]
  Potency: inactive
[3]
  Potency: inactive
[7]
  Potency: active: 8.33 µM
[4]
  Potency: inconclusive: 11.8 µM [rising, single point]
[5]
  Potency: inactive

## CC(C)C[C@H](CN)CC(=O)O
[8]
  Potency: inactive
[2]
  Potency: inactive
[3]
  Potency: inactive

## COC[C@@H](NC(C)=O)C(=O)NCc1ccccc1
[8]
  Potency: inactive
[3]
  Potency: inactive
[7]
  Potency: inconclusive: 16.6 µM [rising, partial curve, poor fit]

## CCN1CCN(C(=O)Cc2ccc(Nc3ncc(F)c(Nc4ccc(C(=O)Nc5ccccc5Cl)cc4)n3)cc2)CC1
[1]
  Potency: active: 3.72 µM
[5]
  Potency: active: 1.87 µM

## O=c1[nH]c2ccccc2n1C1CCN(Cc2ccc(-c3[nH]c4cc5ncnc5cc4nc3-c3ccccc3)cc2)CC1
[8]
  Potency: active: 1.87 µM
[3]
  Potency: inconclusive: 9.35 µM [cytotoxic, partial curve]
[5]
  Potency: inconclusive: 3.32 µM [cytotoxic, full curve]
[6]
  Potency: inconclusive: 1.05 µM [cytotoxic, full curve]
